Values quoted from earlier work in US8183246B2, “Acyclically substituted furopyrimidine derivatives and use thereof” (Bayer Intellectual Property GmbH, priority 2005, dated 2012).

Settings: rapid non-enzymatic transformation to 6-keto-prostaglandin-F1alpha; cited from earlier work

For `CCCCC[C@H](O)/C=C/[C@@H]1[C@H]2C/C(=C/CCCC(=O)O)O[C@H]2C[C@H]1O` [PGI2, Prostacyclin], the half-life is given as “approx. 3 minutes”.
